PubChem BioAssay AID1159592, NIAID, 2016
Assay: 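Gene knock-downs altering NF-kB activation in reporter macrophages given R848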. System: RAW264.7 macrophages from mouse bearing reporters for p65 (GFP) and the Tnf promoter (mCherry). Reagent: single siRNA against mouse genes. Timing: 48 to 72 hours after siRNA transfection. Treatment: R848 TLR ligand for 40 minutes before fixation; dose not given. Detection: 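Nuclear over cytoplasmic GFP-p65 signal imaged 40 minutes after R848, plate-normalised by median and MAD, given as robust z versus negative controls, mean of replicates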. Scale: NF-kB translocation z-score: higher = more p65 moved into the nucleus than in negative-control wells. Hit rule: 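Active when the replicate-mean z lies above 1.5 or below -1.5; the depositor also grades absolute z in steps of 1, 1.5, 2 and 2.5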. Calls: active = strong change, either direction; inactive = little change.
This is one part, drawn at random, of 756 reagents. 147 of them (19%) count as active. 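Active covers both loss and gain of p65 entry; negative z means weaker NF-kB activation, positive means more nuclear p65.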 Reagents against one gene are numbered here. The record does not give: the amount of reagent.

target gene | reagent | NF-kB translocation z-score, replicate mean | activity call
Pik3cg | 1 | -0.424 | inactive
Pik3cg | 2 | -2.38 | active
Pik3cg | 3 | -1.25 | inactive
Pik3cg | 4 | 0.395 | inactive
Pik3cg | 5 | -0.723 | inactive
Pik3cg | 6 | -2.38 | active
Irf5 (interferon regulatory factor 5) | 1 | -1.22 | inactive
Irf5 (interferon regulatory factor 5) | 2 | -0.199 | inactive
Irf5 (interferon regulatory factor 5) | 3 | -0.404 | inactive
Irf5 (interferon regulatory factor 5) | 4 | 0.615 | inactive
Irf5 (interferon regulatory factor 5) | 5 | 0.613 | inactive
Irf5 (interferon regulatory factor 5) | 6 | -2.75 | active
Myd88 (myeloid differentiation primary response gene 88) | 1 | -2.36 | active
Myd88 (myeloid differentiation primary response gene 88) | 2 | -3.87 | active
Myd88 (myeloid differentiation primary response gene 88) | 3 | -3.34 | active
Myd88 (myeloid differentiation primary response gene 88) | 4 | -4.16 | active
Myd88 (myeloid differentiation primary response gene 88) | 5 | -4.44 | active
Myd88 (myeloid differentiation primary response gene 88) | 6 | -0.616 | inactive
Dusp1 (dual specificity phosphatase 1) | 1 | 0.43 | inactive
Dusp1 (dual specificity phosphatase 1) | 2 | 1.61 | active
Dusp1 (dual specificity phosphatase 1) | 3 | -0.178 | inactive
Dusp1 (dual specificity phosphatase 1) | 4 | -0.332 | inactive
Dusp1 (dual specificity phosphatase 1) | 5 | -0.122 | inactive
Dusp1 (dual specificity phosphatase 1) | 6 | -0.425 | inactive
Map2k4 (mitogen-activated protein kinase kinase 4) | 1 | 0.225 | inactive
Map2k4 (mitogen-activated protein kinase kinase 4) | 2 | -0.0793 | inactive
Map2k4 (mitogen-activated protein kinase kinase 4) | 3 | -0.0562 | inactive
Map2k4 (mitogen-activated protein kinase kinase 4) | 4 | -1.79 | active
Map2k4 (mitogen-activated protein kinase kinase 4) | 5 | -0.612 | inactive
Map2k4 (mitogen-activated protein kinase kinase 4) | 6 | 0.103 | inactive
Casp8 (caspase 8) | 1 | 0.516 | inactive
Casp8 (caspase 8) | 2 | -1.68 | active
Casp8 (caspase 8) | 3 | -1.14 | inactive
Casp8 (caspase 8) | 4 | -0.613 | inactive
Casp8 (caspase 8) | 5 | -2.24 | active
Casp8 (caspase 8) | 6 | 0.266 | inactive
Tlr3 (toll-like receptor 3) | 1 | 1.06 | inactive
Tlr3 (toll-like receptor 3) | 2 | -0.798 | inactive
Tlr3 (toll-like receptor 3) | 3 | -0.657 | inactive
Tlr3 (toll-like receptor 3) | 4 | -0.194 | inactive
Tlr3 (toll-like receptor 3) | 5 | 0.176 | inactive
Tlr3 (toll-like receptor 3) | 6 | 0.102 | inactive
Atf7 (activating transcription factor 7) | 1 | -1.38 | inactive
Atf7 (activating transcription factor 7) | 2 | -1.82 | active
Atf7 (activating transcription factor 7) | 3 | -0.0757 | inactive
Atf7 (activating transcription factor 7) | 4 | 0.407 | inactive
Atf7 (activating transcription factor 7) | 5 | -0.406 | inactive
Atf7 (activating transcription factor 7) | 6 | -1.04 | inactive
Itgax (integrin alpha X) | 1 | -0.734 | inactive
Itgax (integrin alpha X) | 2 | 0.269 | inactive
Itgax (integrin alpha X) | 3 | -1.43 | inactive
Itgax (integrin alpha X) | 4 | -2.23 | active
Itgax (integrin alpha X) | 5 | -0.461 | inactive
Itgax (integrin alpha X) | 6 | 0.215 | inactive
Pik3r1 (phosphoinositide-3-kinase regulatory subunit 1) | 1 | -2.09 | active
Pik3r1 (phosphoinositide-3-kinase regulatory subunit 1) | 2 | -1.06 | inactive
Pik3r1 (phosphoinositide-3-kinase regulatory subunit 1) | 3 | -0.0748 | inactive
Pik3r1 (phosphoinositide-3-kinase regulatory subunit 1) | 4 | -0.0185 | inactive
Pik3r1 (phosphoinositide-3-kinase regulatory subunit 1) | 5 | -1.93 | active
Pik3r1 (phosphoinositide-3-kinase regulatory subunit 1) | 6 | -0.476 | inactive
Ly96 (lymphocyte antigen 96) | 1 | -0.0719 | inactive
Ly96 (lymphocyte antigen 96) | 2 | 0.371 | inactive
Ly96 (lymphocyte antigen 96) | 3 | 0.12 | inactive
Ly96 (lymphocyte antigen 96) | 4 | -0.0885 | inactive
Ly96 (lymphocyte antigen 96) | 5 | -0.636 | inactive
Ly96 (lymphocyte antigen 96) | 6 | 0.0551 | inactive

Next part (5 carried over from the part before).
target gene | reagent | NF-kB translocation z-score, replicate mean | activity call
Ly96 (lymphocyte antigen 96) | 2 | 0.371 | inactive
Ly96 (lymphocyte antigen 96) | 3 | 0.12 | inactive
Ly96 (lymphocyte antigen 96) | 4 | -0.0885 | inactive
Ly96 (lymphocyte antigen 96) | 5 | -0.636 | inactive
Ly96 (lymphocyte antigen 96) | 6 | 0.0551 | inactive
Pik3ca | 1 | -1.52 | active
Pik3ca | 2 | -0.106 | inactive
Pik3ca | 3 | -0.0134 | inactive
Pik3ca | 4 | 0.146 | inactive
Pik3ca | 5 | -1.92 | active
Pik3ca | 6 | -0.488 | inactive
Mapk9 (mitogen-activated protein kinase 9) | 1 | -0.884 | inactive
Mapk9 (mitogen-activated protein kinase 9) | 2 | -0.00345 | inactive
Mapk9 (mitogen-activated protein kinase 9) | 3 | -0.62 | inactive
Mapk9 (mitogen-activated protein kinase 9) | 4 | 0.18 | inactive
Mapk9 (mitogen-activated protein kinase 9) | 5 | -0.693 | inactive
Mapk9 (mitogen-activated protein kinase 9) | 6 | 0.334 | inactive
Ikbkg (inhibitor of kappaB kinase gamma) | 1 | -2.22 | active
Ikbkg (inhibitor of kappaB kinase gamma) | 2 | -2.06 | active
Ikbkg (inhibitor of kappaB kinase gamma) | 3 | -0.204 | inactive
Ikbkg (inhibitor of kappaB kinase gamma) | 4 | -2.64 | active
Ikbkg (inhibitor of kappaB kinase gamma) | 5 | -2.44 | active
Ikbkg (inhibitor of kappaB kinase gamma) | 6 | -0.00725 | inactive
Ticam1 (TIR domain containing adaptor molecule 1) | 1 | -2.1 | active
Ticam1 (TIR domain containing adaptor molecule 1) | 2 | 0.313 | inactive
Ticam1 (TIR domain containing adaptor molecule 1) | 3 | -0.628 | inactive
Ticam1 (TIR domain containing adaptor molecule 1) | 4 | 0.168 | inactive
Ticam1 (TIR domain containing adaptor molecule 1) | 5 | -0.271 | inactive
Ticam1 (TIR domain containing adaptor molecule 1) | 6 | -2.29 | active
Peli1 (pellino 1) | 1 | -0.528 | inactive
Peli1 (pellino 1) | 2 | -0.555 | inactive
Peli1 (pellino 1) | 3 | -0.798 | inactive
Peli1 (pellino 1) | 4 | 2.03 | active
Peli1 (pellino 1) | 5 | -0.808 | inactive
Peli1 (pellino 1) | 6 | -0.799 | inactive
Il1rl1 (interleukin 1 receptor-like 1) | 1 | -1.24 | inactive
Il1rl1 (interleukin 1 receptor-like 1) | 2 | -1.11 | inactive
Il1rl1 (interleukin 1 receptor-like 1) | 3 | -0.414 | inactive
Il1rl1 (interleukin 1 receptor-like 1) | 4 | -1.04 | inactive
Il1rl1 (interleukin 1 receptor-like 1) | 5 | -1.73 | active
Il1rl1 (interleukin 1 receptor-like 1) | 6 | -0.938 | inactive
Irf3 (interferon regulatory factor 3) | 1 | -1.05 | inactive
Irf3 (interferon regulatory factor 3) | 2 | 1.77 | active
Irf3 (interferon regulatory factor 3) | 3 | -2.69 | active
Irf3 (interferon regulatory factor 3) | 4 | -0.617 | inactive
Irf3 (interferon regulatory factor 3) | 5 | 0.294 | inactive
Irf3 (interferon regulatory factor 3) | 6 | -0.188 | inactive
Mapk14 (mitogen-activated protein kinase 14) | 1 | 1.45 | inactive
Mapk14 (mitogen-activated protein kinase 14) | 2 | 0.299 | inactive
Mapk14 (mitogen-activated protein kinase 14) | 3 | 0.21 | inactive
Mapk14 (mitogen-activated protein kinase 14) | 4 | -0.895 | inactive
Mapk14 (mitogen-activated protein kinase 14) | 5 | -1.67 | active
Mapk14 (mitogen-activated protein kinase 14) | 6 | -0.795 | inactive
